Test results published in publication PMC7175122 (Biomolecules, 2020).
Square brackets hold non-standard residues; d marks the D form. Side chains are listed from the residue outwards. hArg = N=C(N)NCCCC[C@H](N)C(=O)O; ΔPro = O=C(O)[C@@H]1C=CCN1; Dab = NCC[C@H](N)C(=O)O

test: general procedure: Fmoc solid-phase peptide synthesis; preloaded Fmoc-Arg(Pbf) Wang resin, 0.39 mmol/g; HATU/DIPEA; conditions: whole synthesis, scale of the general procedure 0.5 g resin, TFA

Substance | isolated yield [%]
H-CDK(hArg)[Dab][ΔPro]R-OH (SMILES N=C(N)NCCCC[C@H](N)C(=O)NCCCC[C@H](NC(=O)[C@H](CC(=O)O)NC(=O)[C@@H](N)CS)C(=O)N[C@@H](CCN)C(=O)N1CC=C[C@H]1C(=O)N[C@@H](CCCNC(=N)N)C(=O)O) | 41
H-CK(hArg)[Dab][ΔPro]R-OH (SMILES N=C(N)NCCCC[C@H](N)C(=O)NCCCC[C@H](NC(=O)[C@@H](N)CS)C(=O)N[C@@H](CCN)C(=O)N1CC=C[C@H]1C(=O)N[C@@H](CCCNC(=N)N)C(=O)O) | 51
H-CKPRR-OH | 68
H-CLPPR-OH | 65
H-CTKPR-OH | 68
H-K([hArg-Asp-Cys])[Dab][ΔPro]R-OH | 46
H-K([hArg-Cys])[Dab][ΔPro]R-OH | 48
